In one series the target is T1, ZCCHC4 Y173A (human) (UniProt Q9H5U6).
T1 sequence (looked up): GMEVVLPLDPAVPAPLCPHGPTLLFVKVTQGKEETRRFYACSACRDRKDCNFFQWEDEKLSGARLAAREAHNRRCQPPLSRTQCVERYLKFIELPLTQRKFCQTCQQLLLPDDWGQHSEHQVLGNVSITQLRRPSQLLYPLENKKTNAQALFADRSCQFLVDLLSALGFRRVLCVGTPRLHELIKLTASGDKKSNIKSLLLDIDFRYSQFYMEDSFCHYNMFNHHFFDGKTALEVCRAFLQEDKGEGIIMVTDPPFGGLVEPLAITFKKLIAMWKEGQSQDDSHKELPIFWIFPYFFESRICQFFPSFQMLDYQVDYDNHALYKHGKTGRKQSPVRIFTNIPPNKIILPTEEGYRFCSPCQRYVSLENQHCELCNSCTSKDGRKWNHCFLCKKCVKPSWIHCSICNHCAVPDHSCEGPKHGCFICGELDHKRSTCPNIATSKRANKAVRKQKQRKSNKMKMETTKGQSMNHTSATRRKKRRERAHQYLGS
Nature of the series: EMSA. The conditions noted are these: 0.3 uM protein, 0.6 uM RNA; EMSA: 20 mM Tris-HCl pH 7.5, 100 mM NaCl, 5% glycerol, 1 mM DTT, 4 C, 1 h; 0.3 uM RNA with 0-1.2 uM protein unless noted; 6% TBE native gel; recombinant protein; residues 24-513; protein details: His6-SUMO removed by ULP1; label: none (SYBR Gold stain).

The next series concerns the target T2, ZCCHC4 F61A (human) (UniProt Q9H5U6).
T2 sequence (looked up): T1 sequence (looked up) with F38A, A150Y
The experiment in a line: EMSA. The note with it: 0.3 uM protein, 0.6 uM RNA; EMSA: 20 mM Tris-HCl pH 7.5, 100 mM NaCl, 5% glycerol, 1 mM DTT, 4 C, 1 h; 0.3 uM RNA with 0-1.2 uM protein unless noted; 6% TBE native gel; recombinant protein; residues 24-513; protein details: His6-SUMO removed by ULP1; label: none (SYBR Gold stain). On the technique in general: A gel shift assay detects complexes by their altered migration in electrophoresis.

Where a chain is given by its changes, count along the chain named. For at least one entry, the source does not settle the construct or the ends of the probe. At least one verdict rests on a figure or table, not on a statement of the authors. Tags and fusion partners may be left off the protein sequences shown.

For the sequence “CGGUACACCUGUCAAACGGUAACGCAGGUG [30-mer 28S rRNA]”, the binding result in the series with ZCCHC4 Y173A (human) and with ZCCHC4 F61A (human) was “binds” throughout.

(Values after article PMC6834594, “Structure and regulation of ZCCHC4 in m^6A-methylation of 28S rRNA” (Nature Communications, 2019).)
